Laboratory results taken from paper PMC7158045 (BMC Plant Biology, 2020).

Experiments:
Assay in all cases: biochemical
[1] = target: T1, ZmDRIK1 (DROUGHT RESPONSIVE INACTIVE KINASE 1), kinase domain (Zea mays, UniProt C0P4K9); details: read-out: dTm B, sheet ZmDRIK1-R187-S514;; DSF, Boltzmann fit, 0.1% DMSO
T1 construct: gene ZEAMMB73_Zm00001d028770; ZmDRIK1-KD R187-S514 (kinase domain)
T1 sequence (C0P4K9 187-514): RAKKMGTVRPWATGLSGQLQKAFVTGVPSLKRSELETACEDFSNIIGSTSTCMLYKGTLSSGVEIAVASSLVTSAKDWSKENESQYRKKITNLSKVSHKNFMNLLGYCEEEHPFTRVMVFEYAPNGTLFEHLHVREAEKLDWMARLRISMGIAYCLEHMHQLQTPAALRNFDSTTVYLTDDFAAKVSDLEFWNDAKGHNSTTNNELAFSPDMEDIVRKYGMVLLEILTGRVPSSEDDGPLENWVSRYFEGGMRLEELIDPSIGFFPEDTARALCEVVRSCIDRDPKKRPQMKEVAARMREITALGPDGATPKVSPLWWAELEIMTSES

ZmDRIK1-K217-S514 = target: T2, ZmDRIK1-K217-S514 (Zea mays, UniProt C0P4K9); details: read-out: dTm B, sheet ZmDRIK1-K217-S514;; DSF, Boltzmann fit, 0.1% DMSO
T2 construct: kinase domain, K217-S514
T2 sequence (C0P4K9 1-514): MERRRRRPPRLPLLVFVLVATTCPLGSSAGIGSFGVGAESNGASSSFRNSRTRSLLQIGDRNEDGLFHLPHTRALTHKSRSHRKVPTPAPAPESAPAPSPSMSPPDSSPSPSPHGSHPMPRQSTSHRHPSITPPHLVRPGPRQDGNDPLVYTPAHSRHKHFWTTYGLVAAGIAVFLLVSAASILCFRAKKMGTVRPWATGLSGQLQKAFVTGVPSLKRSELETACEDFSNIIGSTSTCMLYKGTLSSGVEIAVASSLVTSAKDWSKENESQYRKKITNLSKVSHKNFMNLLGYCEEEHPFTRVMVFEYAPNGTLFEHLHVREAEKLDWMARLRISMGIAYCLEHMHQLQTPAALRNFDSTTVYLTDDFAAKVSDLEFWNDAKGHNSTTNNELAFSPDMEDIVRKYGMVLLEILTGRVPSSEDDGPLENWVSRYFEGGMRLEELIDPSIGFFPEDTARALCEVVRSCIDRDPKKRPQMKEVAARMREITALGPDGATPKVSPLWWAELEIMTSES

ZmDRIK1-R187-P492 = target: T3, ZmDRIK1-R187-P492 (Zea mays, UniProt C0P4K9); details: read-out: dTm B, DSF, Boltzmann fit, 0.1% DMSO
T3 construct: kinase domain, R187-P492
T3 sequence (C0P4K9 1-514): T2 sequence (C0P4K9 1-514)

ZmDRIK1-K217-P492 = target: T4, ZmDRIK1-K217-P492 (Zea mays, UniProt C0P4K9); details: read-out: dTm B, sheet ZmDRIK1-K217-P492;; DSF, Boltzmann fit, 0.1% DMSO
T4 construct: kinase domain, K217-P492
T4 sequence (C0P4K9 1-514): T2 sequence (C0P4K9 1-514)

ΔTm at 10 µM [1] [°C] | ΔTm at 10 µM (ZmDRIK1-K217-S514) [°C] | ΔTm at 10 µM (ZmDRIK1-R187-P492) [°C] | ΔTm at 10 µM (ZmDRIK1-K217-P492) [°C] | SMILES
-0.479 | -0.195 | -0.282 | -1.25 | Nc1nc(N)c2nc(-c3cccc(O)c3)cnc2n1 [TG100713]
-0.543 | -0.275 | -0.352 | -1.07 | Nc1ccc(C(=O)Nc2cccc(-c3nc(N4CCOCC4)c4oc5ncccc5c4n3)c2)cn1 [YM201636]
